{"source": "PubChem BioAssay AID540276", "about": "(National Center for Advancing Translational Sciences (NCATS), 2011)", "note": "Screen size: about 300,000 compounds; about 5,400 (1.8%) were called active. Inconclusive means that the source gave no clear call. Such entries were picked first, then a sample of the others. Calls come from the whole dose curve; tested in HEK293 cells. Where the call is inconclusive, the potency comes from a doubtful curve fit. Potency is the fitted concentration of half-maximal effect.", "data": [{"assay": "qHTS for inhibitors of binding or entry into cells for Marburg Virus", "details": "Marburg virus pseudotyped entry inhibition, cell reporter; series mostly up to 37.8 µM", "values": [{"smiles": "O=C(NC(=S)Nc1ccc(N2CCOCC2)c(Cl)c1)C(c1ccccc1)c1ccccc1", "Potency": "inactive"}, {"smiles": "CCC1CSC(Nc2ccc(C(=O)/C=C/c3ccc(Br)cc3)cc2)=N1", "note": "(centres undefined)", "Potency": "inconclusive: 11.2 µM [inhibitor, partial curve, poor fit]"}, {"smiles": "CCn1c2ccc(C)cc2c2n[nH]c(=S)nc21", "Potency": "inconclusive: 2.82 µM [activator, single point]"}, {"smiles": "O=C(N/N=C/c1ccncc1)c1cc(-c2ccc(Br)s2)[nH]n1", "Potency": "inconclusive: 14.1 µM [inhibitor, partial curve, poor fit]"}, {"smiles": "Cc1nnc2sc(SCC(=O)Nc3nccs3)nn2c1=O", "Potency": "inconclusive: 14.1 µM [inhibitor, single point]"}, {"smiles": "COc1ccc(F)cc1S(=O)(=O)NC1CCCC1", "Potency": "inconclusive: 1.03 µM [inhibitor, single point]"}, {"smiles": "NNC(=O)c1cccc(COc2ccc3c(c2)CCC3)c1", "Potency": "inconclusive: 1.46 µM [inhibitor, full curve, poor fit]"}, {"smiles": "CCOc1ccc(C(=O)Nc2ccccc2C(=O)O)cc1", "Potency": "inconclusive: 10 µM [inhibitor, partial curve, poor fit]"}, {"smiles": "CNC(=O)Oc1ccc(-c2cn3cc(Cl)ccc3n2)cc1", "Potency": "active: 8.2 µM"}, {"smiles": "COc1ccc(/C=C/C(=O)Nc2c(C)nn(C)c2C)cc1COc1ccc(Br)cc1", "Potency": "inconclusive: 10.3 µM [inhibitor, partial curve, poor fit]"}, {"smiles": "CCN(CC)C(=O)COC(=O)c1ccc(C)c(NC(=O)c2ccco2)c1", "Potency": "inactive"}, {"smiles": "Cc1onc(-c2c(F)cccc2Cl)c1C(=O)Nc1nc2c(s1)CCCC2", "Potency": "inactive"}, {"smiles": "COc1ccc(NC(=O)CSc2nnc(-c3cccs3)o2)cc1", "Potency": "inconclusive: 10 µM [activator, partial curve, poor fit]"}, {"smiles": "CC(=O)C(C(C)=O)c1c(Cl)c(O)c(O)c2c(C(=O)c3ccccc3)coc12", "Potency": "inconclusive: 6.31 µM [inhibitor, full curve]"}, {"smiles": "O=C(COc1coc(CN2CCN(c3ccc(F)cc3)CC2)cc1=O)Nc1ccccc1", "Potency": "inactive"}, {"smiles": "COc1c2c(nc3ccccc13)O[C@@H]([C@@](C)(O)CO)C2", "Potency": "inconclusive: 0.0398 µM [activator, partial curve, poor fit]"}, {"smiles": "Cn1c2ccccc2c2c(C(=O)N3CCN(c4ccc(F)cc4)CC3)cn(C3CCCCC3)c(=O)c21", "Potency": "inconclusive: 17.8 µM [inhibitor, partial curve, poor fit]"}, {"smiles": "O=C1CCCC=C1C(O)COCc1ccccc1", "note": "(centres undefined)", "Potency": "inactive"}, {"smiles": "O=C(NC(Nc1ncccn1)C(=O)c1ccccc1)c1ccccc1", "note": "(centres undefined)", "Potency": "inconclusive: 1 µM [activator, full curve, poor fit]"}]}]}
